Measurements as given in article PMC10879504.
No constants are given. Whether binding was seen depends on the method and setting. In cells and extracts the contact can be indirect. Some results given as binding are weak or reduced against the parent protein; the word gives no strength. For some assays here: Sequences can lack the tags named with a protein.

Amino acid sequences for entries named in this document (tags omitted).
UniProt Q86TM6: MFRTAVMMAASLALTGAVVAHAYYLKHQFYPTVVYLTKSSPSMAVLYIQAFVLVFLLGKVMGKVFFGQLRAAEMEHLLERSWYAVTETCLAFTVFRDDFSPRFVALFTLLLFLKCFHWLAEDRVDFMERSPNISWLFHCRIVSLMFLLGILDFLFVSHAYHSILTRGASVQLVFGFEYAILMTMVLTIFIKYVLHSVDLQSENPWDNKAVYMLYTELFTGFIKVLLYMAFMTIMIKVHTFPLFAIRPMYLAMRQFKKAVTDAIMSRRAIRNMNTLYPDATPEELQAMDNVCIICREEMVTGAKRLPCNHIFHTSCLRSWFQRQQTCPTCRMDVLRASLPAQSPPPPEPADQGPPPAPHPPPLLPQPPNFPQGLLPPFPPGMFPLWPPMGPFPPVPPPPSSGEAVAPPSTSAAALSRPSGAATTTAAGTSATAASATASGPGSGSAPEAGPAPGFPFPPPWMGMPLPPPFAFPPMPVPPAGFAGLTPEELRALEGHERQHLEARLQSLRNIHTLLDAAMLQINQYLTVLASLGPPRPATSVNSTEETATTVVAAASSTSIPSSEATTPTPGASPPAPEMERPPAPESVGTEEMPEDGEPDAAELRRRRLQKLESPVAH

Experiments:
[1] = target: HMG-CoA reductase degradation protein 1 (HRD1), endogenous (human (endogenous in Caco-2)) (UniProt Q86TM6); assay: co-IP; endogenous TMEM2 and HRD1 in Caco-2 cells; I/R or H/R named in the text
[2] = target: Myc-HRD1 (human) (UniProt Q86TM6); assay: co-IP; HEK293 cells transfected with Flag-TMEM2 and Myc-HRD1 or its deletion mutants for 48 h; antibody on Protein A/G magnetic beads

| binding [1] | binding [2] | Binder |
| --- | --- | --- |
| binds | – | transmembrane protein 2 (TMEM2), endogenous (protein, UniProt Q9UHN6 1-1383) MYATDSRGHSPAFLQPQNGNSRHPSGYVPGKVVPLRPPPPPKSQASAKFTSIRREDRATFAFSPEEQQAQRESQKQKRHKNTFICFAITSFSFFIALAIILGISSKYAPDENCPDQNPRLRNWDPGQDSAKQVVIKEGDMLRLTSDATVHSIVIQDGGLLVFGDNKDGSRNITLRTHYILIQDGGALHIGAEKCRYKSKATITLYGKSDEGESMPTFGKKFIGVEAGGTLELHGARKASWTLLARTLNSSGLPFGSYTFEKDFSRGLNVRVIDQDTAKILESERFDTHEYRNESRRLQEFLRFQDPGRIVAIAVGDSAAKSLLQGTIQMIQERLGSELIQGLGYRQAWALVGVIDGGSTSCNESVRNYENHSSGGKALAQREFYTVDGQKFSVTAYSEWIEGVSLSGFRVEVVDGVKLNLLDDVSSWKPGDQIVVASTDYSMYQAEEFTLLPCSECSHFQVKVKETPQFLHMGEIIDGVDMRAEVGILTRNIVIQGEVEDSCYAENQCQFFDYDTFGGHIMIMKNFTSVHLSYVELKHMGQQQMGRYPVHFHLCGDVDYKGGYRHATFVDGLSIHHSFSRCITVHGTNGLLIKDTIGFDTLGHCFFLEDGIEQRNTLFHNLGLLTKPGTLLPTDRNNSMCTTMRDKVFGNYIPVPATDCMAVSTFWIAHPNNNLINNAAAGSQDAGIWYLFHKEPTGESSGLQLLAKPELTPLGIFYNNRVHSNFKAGLFIDKGVKTTNSSAADPREYLCLDNSARFRPHQDANPEKPRVAALIDRLIAFKNNDNGAWVRGGDIIVQNSAFADNGIGLTFASDGSFPSDEGSSQEVSESLFVGESRNYGFQGGQNKYVGTGGIDQKPRTLPRNRTFPIRGFQIYDGPIHLTRSTFKKYVPTPDRYSSAIGFLMKNSWQITPRNNISLVKFGPHVSLNVFFGKPGPWFEDCEMDGDKNSIFHDIDGSVTGYKDAYVGRMDNYLIRHPSCVNVSKWNAVICSGTYAQVYVQTWSTQNLSMTITRDEYPSNPMVLRGINQKAAFPQYQPVVMLEKGYTIHWNGPAPRTTFLYLVNFNKNDWIRVGLCYPSNTSFQVTFGYLQRQNGSLSKIEEYEPVHSLEELQRKQSERKFYFDSSTGLLFLYLKAKSHRHGHSYCSSQGCERVKIQAATDSKDISNCMAKAYPQYYRKPSVVKRMPAMLTGLCQGCGTRQVVFTSDPHKSYLPVQFQSPDKAETQRGDPSVISVNGTDFTFRSAGVLLLVVDPCSVPFRLTEKTVFPLADVSRIEEYLKTGIPPRSIVLLSTRGEIKQLNISHLLVPLGLAKPAHLYDKGSTIFLGFSGNFKPSWTKLFTSPAGQGLGVLEQFIPLQLDEYGCPRATTVRRRDLELLKQASKAH |
| – | binds | Flag-TMEM2 (protein, UniProt Q9UHN6 1-1383) MYATDSRGHSPAFLQPQNGNSRHPSGYVPGKVVPLRPPPPPKSQASAKFTSIRREDRATFAFSPEEQQAQRESQKQKRHKNTFICFAITSFSFFIALAIILGISSKYAPDENCPDQNPRLRNWDPGQDSAKQVVIKEGDMLRLTSDATVHSIVIQDGGLLVFGDNKDGSRNITLRTHYILIQDGGALHIGAEKCRYKSKATITLYGKSDEGESMPTFGKKFIGVEAGGTLELHGARKASWTLLARTLNSSGLPFGSYTFEKDFSRGLNVRVIDQDTAKILESERFDTHEYRNESRRLQEFLRFQDPGRIVAIAVGDSAAKSLLQGTIQMIQERLGSELIQGLGYRQAWALVGVIDGGSTSCNESVRNYENHSSGGKALAQREFYTVDGQKFSVTAYSEWIEGVSLSGFRVEVVDGVKLNLLDDVSSWKPGDQIVVASTDYSMYQAEEFTLLPCSECSHFQVKVKETPQFLHMGEIIDGVDMRAEVGILTRNIVIQGEVEDSCYAENQCQFFDYDTFGGHIMIMKNFTSVHLSYVELKHMGQQQMGRYPVHFHLCGDVDYKGGYRHATFVDGLSIHHSFSRCITVHGTNGLLIKDTIGFDTLGHCFFLEDGIEQRNTLFHNLGLLTKPGTLLPTDRNNSMCTTMRDKVFGNYIPVPATDCMAVSTFWIAHPNNNLINNAAAGSQDAGIWYLFHKEPTGESSGLQLLAKPELTPLGIFYNNRVHSNFKAGLFIDKGVKTTNSSAADPREYLCLDNSARFRPHQDANPEKPRVAALIDRLIAFKNNDNGAWVRGGDIIVQNSAFADNGIGLTFASDGSFPSDEGSSQEVSESLFVGESRNYGFQGGQNKYVGTGGIDQKPRTLPRNRTFPIRGFQIYDGPIHLTRSTFKKYVPTPDRYSSAIGFLMKNSWQITPRNNISLVKFGPHVSLNVFFGKPGPWFEDCEMDGDKNSIFHDIDGSVTGYKDAYVGRMDNYLIRHPSCVNVSKWNAVICSGTYAQVYVQTWSTQNLSMTITRDEYPSNPMVLRGINQKAAFPQYQPVVMLEKGYTIHWNGPAPRTTFLYLVNFNKNDWIRVGLCYPSNTSFQVTFGYLQRQNGSLSKIEEYEPVHSLEELQRKQSERKFYFDSSTGLLFLYLKAKSHRHGHSYCSSQGCERVKIQAATDSKDISNCMAKAYPQYYRKPSVVKRMPAMLTGLCQGCGTRQVVFTSDPHKSYLPVQFQSPDKAETQRGDPSVISVNGTDFTFRSAGVLLLVVDPCSVPFRLTEKTVFPLADVSRIEEYLKTGIPPRSIVLLSTRGEIKQLNISHLLVPLGLAKPAHLYDKGSTIFLGFSGNFKPSWTKLFTSPAGQGLGVLEQFIPLQLDEYGCPRATTVRRRDLELLKQASKAH |
